Data taken from the supplement of paper PMC9135407.
Where “and” joins values, the source holds several entries; their conditions need not be identical. Equal values may be shown once. Where a name gives a salt, the structure may show the parent alone. ± gives the standard deviation of the averaged measurements. The list shows a part of the results. Part of the spread comes from offsets between plates or batches.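 Assay uses culture-activated primary human stellate myofibroblasts; lipid droplet recovery indicates inactivation. Measured: proportion of Hoechst-counted cells over a plate-specific Bodipy cutoff, duplicate wells, DMSO and nortriptyline as per-plate negative and positive controls. A hit scores, control-normalized, above the plate's top-tenth-percentile nortriptyline wells or ranks among its three best wells. Final well concentrations not reported.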

Test system: primary human hepatic stellate cells (donor 1)
Assay: percent Bodipy-positive cells; higher = more lipid droplet accumulation
Conditions: 48 h
[1] = library stock concentration: 1 mM
[2] = library stock concentration: 10 mM
[3] = library stock concentration: 3.33 mM
[4] = library stock concentration: 80 uM
[5] = library stock concentration: 400 uM
[6] = library stock concentration: 2 mM
[7] = library stock concentration: 15.4 mM

## CCCCCCCCC#CCC#CCC#CCCCC(=O)O [5,8,11-Eicosatriynoic Acid]
[1]
  percent Bodipy-positive cells: 13 ± 0.34%

## CCCCCCCCC#CCC#CCC#CCCCC(=O)O [5,8,11-Eicosatriynoic acid]
[1]
  percent Bodipy-positive cells: 7.87 ± 9.7%

## Cc1nn(C)c2nc(NNC(=O)Nc3cc(Cl)nc(Cl)c3)cc(C(C)C)c12
[1]
  percent Bodipy-positive cells: 8.79 ± 1.6%
[2]
  percent Bodipy-positive cells: 7.3 ± 2.2%

## C[C@@H](c1ncncc1F)[C@](O)(Cn1cncn1)c1ccc(F)cc1F
Library stock concentration: 9.9 mM
  percent Bodipy-positive cells: 18.2 ± 14%

## C[C@@H](c1ncncc1F)[C@](O)(Cn1cncn1)c1ccc(F)cc1F [Voriconazole]
[3]
  percent Bodipy-positive cells: 9.57 ± 1.1%
[2]
  percent Bodipy-positive cells: 15.8% and 39.3%

## CN1CCN(CCCN2c3ccccc3Sc3ccc(S(=O)(=O)N(C)C)cc32)CC1 [Thioproperazine dimesylate]
  percent Bodipy-positive cells: 78.6 ± 4.7%

## Cc1cc(/N=N/c2cc(S(=O)(=O)O)c(C)cc2C)c(N)cc1O [Ischemin]
[4]
  percent Bodipy-positive cells: 31.6 ± 3%
[5]
  percent Bodipy-positive cells: 31.3 ± 13%
[6]
  percent Bodipy-positive cells: 39 ± 6.3%
[2]
  percent Bodipy-positive cells: 31.9 ± 2%

## O=c1[nH]cc(F)c(=O)[nH]1
[2]
  percent Bodipy-positive cells: 32.2 ± 3.8%

## O=c1[nH]cc(F)c(=O)[nH]1 [5-Fluorouracil]
[2]
  percent Bodipy-positive cells: 37.4 ± 16%

## O=c1[nH]cc(F)c(=O)[nH]1 [Fluorouracil (5-Fluoracil, 5-FU)]
[3]
  percent Bodipy-positive cells: 6.03 ± 0.58%
[2]
  percent Bodipy-positive cells: 17.2 ± 4.2%

## O=c1[nH]cc(F)c(=O)[nH]1 [5-fluorouracil]
[7]
  percent Bodipy-positive cells: 7.31 ± 0.75%

## O=c1[nH]cc(F)c(=O)[nH]1 [Fluorouracil]
[2]
  percent Bodipy-positive cells: 7.54 ± 2.9%
[7]
  percent Bodipy-positive cells: 2.36 ± 0.49%

## O=C(O)c1cc(=O)c2cccc(O)c2[nH]1 [Xanthurenic acid]
[2]
  percent Bodipy-positive cells: 29 ± 1.7%

## CN(C)CCCN1c2ccccc2Sc2ccc(Cl)cc21.Cl [Chlorpromazine HCl]
[2]
  percent Bodipy-positive cells: 97.7 ± 1.6%

## O=C(O)CC/C=C\C[C@H]1CO[C@@H](c2ccccc2Cl)O[C@H]1c1ccccc1O
[2]
  percent Bodipy-positive cells: 8.54 ± 5.2%

## C[C@]12C=CC(=O)C=C1CC[C@@H]1[C@@H]2[C@@H](O)C[C@@]2(C)[C@H]1CC[C@]2(O)C(=O)CO [Prednisolone]
  percent Bodipy-positive cells: 23.8 ± 3.8%
[3]
  percent Bodipy-positive cells: 6.76 ± 3.7%
[2]
  percent Bodipy-positive cells: 5.8% and 15.2% and 30.6%

## O=c1ncn2nc(Sc3ccc(F)cc3F)ccc2c1-c1c(Cl)cccc1Cl
[4]
  percent Bodipy-positive cells: 15.7 ± 0.34%
[5]
  percent Bodipy-positive cells: 20.6 ± 3%
[6]
  percent Bodipy-positive cells: 28 ± 3.8%
[3]
  percent Bodipy-positive cells: 12.8 ± 3.9%
[2]
  percent Bodipy-positive cells: 27.5% and 24.8%

## CC(C)Cc1ccc([C@H](C)C(=O)O)cc1 [S-(+)-ibuprofen]
  percent Bodipy-positive cells: 6.9 ± 4%

## CC(C)Cc1ccc([C@H](C)C(=O)O)cc1 [S(+)-Ibuprofen]
[2]
  percent Bodipy-positive cells: 33.8 ± 6%

## Cc1cncc(CN2CCC(=C3c4ccc(Cl)cc4CCc4cccnc43)CC2)c1 [Rupatadine Fumarate]
[3]
  percent Bodipy-positive cells: 39.2 ± 5.2%

## CS(=O)(=O)c1ccc([C@@H](O)[C@@H](CO)NC(=O)C(Cl)Cl)cc1 [Thiamphenicol]
  percent Bodipy-positive cells: 21.7 ± 6.5%
[3]
  percent Bodipy-positive cells: 20.2 ± 23%
[2]
  percent Bodipy-positive cells: 9.02% and 32.4%

## N#CCNC(=O)c1ccc(-c2ccnc(Nc3ccc(N4CCOCC4)cc3)n2)cc1 [Momelotinib (CYT387) (2 mM)]
[6]
  percent Bodipy-positive cells: 79.9 ± 7.9%

## N#CCNC(=O)c1ccc(-c2ccnc(Nc3ccc(N4CCOCC4)cc3)n2)cc1 [Momelotinib (CYT387) (10 mM)]
[2]
  percent Bodipy-positive cells: 99.66 ± 0.48%

## CC(=O)Oc1cc(C(F)(F)F)ccc1C(=O)O [Triflusal]
  percent Bodipy-positive cells: 29.4 ± 14%
[3]
  percent Bodipy-positive cells: 15.8 ± 3.3%
[2]
  percent Bodipy-positive cells: 24.8 ± 3%

## N=c1ccn2c(n1)O[C@H]1[C@H](O)[C@@H](CO)O[C@H]12 [Cyclocytidine HCl]
[3]
  percent Bodipy-positive cells: 17.4 ± 3.7%
Library stock concentration: 8.9 mM
  percent Bodipy-positive cells: 9.75 ± 2.5%
[2]
  percent Bodipy-positive cells: 21.5 ± 9.6%

## N=c1ccn2c(n1)O[C@H]1[C@H](O)[C@@H](CO)O[C@H]12 [Ancitabine hydrochloride]
[2]
  percent Bodipy-positive cells: 61.8% and 44.3%

## CC(=O)Oc1c(C)cccc1C(=O)O
[2]
  percent Bodipy-positive cells: 28.4 ± 5%

## C[N+](C)(C)CCO.[Br-] [Choline bromide]
[2]
  percent Bodipy-positive cells: 32.8 ± 8.6%

## CNC(=O)c1ccc2cc([C@@]3(O)CCn4cncc43)ccc2c1 [TAK-700 (Orteronel)]
[3]
  percent Bodipy-positive cells: 9.72 ± 5.4%
[2]
  percent Bodipy-positive cells: 28.5 ± 5%

## CCCCCCCC/C=C\CCCCCCCC(=O)NCc1ccc(O)c(OC)c1 [Olvanil]
[1]
  percent Bodipy-positive cells: 8.98 ± 2.8%
[2]
  percent Bodipy-positive cells: 21.9% and 9.89%

## O=C1NC(=O)/C(=C\c2ccc3nccnc3c2)S1
[1]
  percent Bodipy-positive cells: 14.8 ± 9.5%
[2]
  percent Bodipy-positive cells: 33.6 ± 3.9%

## Cc1cc(C(C)(C)CC(C)(C)C)ccc1OCCOCC[N+](C)(C)Cc1ccccc1 [Methylbenzethonium chloride]
[2]
  percent Bodipy-positive cells: 62.9 ± 7.5%

## Cc1cc(C(C)(C)CC(C)(C)C)ccc1OCCOCC[N+](C)(C)Cc1ccccc1 [Methyl benzethonium chloride]
  percent Bodipy-positive cells: 54.6 ± 6.3%

## Cc1cc(NC(=O)C2=C(O)c3ccccc3S(=O)(=O)N2C)no1 [Isoxicam]
  percent Bodipy-positive cells: 19.3 ± 2.9%
Library stock concentration: 6 mM
  percent Bodipy-positive cells: 8.8 ± 4.8%
[2]
  percent Bodipy-positive cells: 37.8 ± 0.71%

## CN(C)S(=O)(=O)c1ccc2c(c1)/C(=C/c1cc3c([nH]1)CCCC3)C(=O)N2
[2]
  percent Bodipy-positive cells: 88.88 ± 0.56%

## CO[C@@]1(NC(=O)C2SC(=C(C(N)=O)C(=O)O)S2)C(=O)N2C(C(=O)O)=C(CSc3nnnn3C)CS[C@@H]21 (stereo partly drawn) [Cefotetan]
  percent Bodipy-positive cells: 26.6 ± 6.3%

## CN(C)CCCN1c2ccccc2CCc2ccc(Cl)cc21
[2]
  percent Bodipy-positive cells: 92.3 ± 6.1%

## CN(C)CCCN1c2ccccc2CCc2ccc(Cl)cc21 [Clomipramine HCl]
[3]
  percent Bodipy-positive cells: 63.7 ± 1.6%

## CN(C)CCCN1c2ccccc2CCc2ccc(Cl)cc21 [Clomipramine hydrochloride]
Library stock concentration: 5.7 mM
  percent Bodipy-positive cells: 86.5 ± 1.1%
